Laboratory results published in PubChem BioAssay AID250 (DTP/NCI, 2004).
The list does not hold the whole screen: it gathers tests that were run many times, whatever their T/C, doses with no T/C, and many T/C values between a quarter and a half above the control. Other doses and runs of a compound stand elsewhere. T/C: endpoint of the treated group in % of that of the vehicle group. Some doses have a count of surviving animals in place of a T/C: the source holds a T/C of zero for them, seemingly a mark for toxic or unscored doses. Some doses without a T/C left all or most animals alive at the check, yet need not have been tolerated: the source hardly ever lists a survival T/C far under the control, and the zero likely stands for such cases as well. For some of these results: Survivors were counted at the toxicity check, usually on the fifth day, unless a day is given; later deaths do not show. Schedules are NCI's codes, taken here to give the interval after Q, in days (D) or hours (H), and the number of doses after X. Some schedules carry Z or #; the key to these is not given. Some structures stand for samples that the source files as different forms (salt, stereo form or complex); doses refer to the form tested. Some doses were run more than once; the results are listed from low to high. For some of these results: Where survival is the endpoint, this PubChem deposit counts one and a half times the control or more as active, and values a quarter to a half above the control carry no call in these data; other NCI protocols may use other cut-offs. Some T/C values are followed by the survivors on the day toxicity was checked, most often the fifth; without a count, all were alive then.

Experiments:
[1] = test system: BDF1 mice, L1210 leukemia sc, survival T/C; assay: NCI In Vivo Anticancer Drug Screen. Data for tumor model L1210 Leukemia (subcutaneous) in B6D2F1 (BDF1) mice; conditions: T/C endpoint: median survival time, higher T/C = longer survival
Procedure, shortened: (§1)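 Transplantable tumor-bearing mice; survival or tumor size recorded; result = T/C, treated vs vehicle control.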

[2] = test system: BDF1 mice, L1210 leukemia sc; assay: as above; conditions: T/C endpoint: median survival time, higher T/C = longer survival
Procedure, shortened: as §1

NC(CSC(c1ccccc1)(c1ccccc1)c1ccccc1)C(=O)O (stereo unspecified)
survivor count ([1]; dose: 65.0 mg/kg/injection, schedule: Q03HX003 (sc), vehicle: saline): 8 of 8 | survivor count ([1]; dose: 108.0 mg/kg/injection, schedule: Q01DX009 (sc), vehicle: saline): 8 of 8 | survivor count ([1]; dose: 180.0 mg/kg/injection, schedule: Q01DX009 (sc), vehicle: saline): 8 of 8 | survivor count ([1]; dose: 300.0 mg/kg/injection, schedule: Q01DX009 (sc), vehicle: saline): 8 of 8 | survivor count ([1]; dose: 500.0 mg/kg/injection, schedule: Q01DX009 (sc), vehicle: saline): 8 of 8 | T/C ([2]; dose: 14.0 mg/kg/injection, schedule: Q03HX003 (sc), vehicle: saline): 125 % of control | T/C ([2]; dose: 39.0 mg/kg/injection, schedule: Q01DX009 (sc), vehicle: saline): 132 % of control | T/C ([2]; dose: 39.0 mg/kg/injection, schedule: Q02DX005 (sc), vehicle: saline): 125 % of control | T/C ([2]; dose: 65.0 mg/kg/injection, schedule: Q02DX005 (sc), vehicle: saline): 128 % of control | T/C ([2]; dose: 108.0 mg/kg/injection, schedule: Q02DX005 (sc), vehicle: saline): 135 % of control | T/C ([2]; dose: 180.0 mg/kg/injection, schedule: Q02DX005 (sc), vehicle: saline): 142 % of control | T/C ([2]; dose: 180.0 mg/kg/injection, schedule: Q04DX003 (sc), vehicle: saline): 142 % of control | T/C ([2]; dose: 300.0 mg/kg/injection, schedule: Q04DX003 (sc), vehicle: saline): 132 % of control | T/C ([2]; dose: 500.0 mg/kg/injection, schedule: Q04DX003 (sc), vehicle: saline): 142 % of control

N=C(N)SCc1c2ccccc2c(CSC(=N)N)c2ccccc12
survivor count ([1]; dose: 39.0 mg/kg/injection, schedule: Q01DX Z (sc), vehicle: methylcellulose (MC)): 4 of 8 | survivor count ([1]; dose: 65.0 mg/kg/injection, schedule: Q01DX Z (sc), vehicle: methylcellulose (MC)): 0 of 8 | survivor count ([1]; dose: 100.0 mg/kg/injection, schedule: Q01DX009 (ip), vehicle: steroid suspending solution): 8 of 8 | survivor count ([1]; dose: 108.0 mg/kg/injection, schedule: Q01DX Z (sc), vehicle: methylcellulose (MC)): 2 of 8 | survivor count ([1]; dose: 180.0 mg/kg/injection, schedule: Q01DX Z (sc), vehicle: methylcellulose (MC)): 3 of 8 | survivor count ([1]; dose: 200.0 mg/kg/injection, schedule: Q01DX009 (ip), vehicle: steroid suspending solution): 6 of 8 | survivor count ([1]; dose: 200.0 mg/kg/injection, schedule: Q04DX003 (ip), vehicle: steroid suspending solution): 7 of 8 | survivor count ([1]; dose: 300.0 mg/kg/injection, schedule: Q01DX Z (sc), vehicle: methylcellulose (MC)): 2 of 8 | survivor count ([1]; dose: 400.0 mg/kg/injection, schedule: Q04DX003 (ip), vehicle: steroid suspending solution): 3 of 8 | survivor count ([1]; dose: 500.0 mg/kg/injection, schedule: Q01DX001 (ip), vehicle: steroid suspending solution): 8 of 8 | survivor count ([1]; dose: 1000.0 mg/kg/injection, schedule: Q01DX001 (ip), vehicle: steroid suspending solution): 5 of 8 | T/C ([2]; dose: 100.0 mg/kg/injection, schedule: Q01DX009 (sc), vehicle: steroid suspending solution): 140 % of control | T/C ([2]; dose: 250.0 mg/kg/injection, schedule: Q01DX001 (sc), vehicle: steroid suspending solution): 140 % of control

Nc1nc(N)c2cc(CNc3ccc(C(=O)NC(CC(=O)O)C(=O)O)cc3)ccc2n1 (stereo unspecified)
survivor count ([1]; dose: 100.0 mg/kg/injection, schedule: Q01DX001 (sc), vehicle: saline): 5 of 8 | T/C ([2]; dose: 25.0 mg/kg/injection, schedule: Q01DX001 (sc), vehicle: saline): 138 % of control

O=C(Nc1ccc(C2=NCCN2)cc1)c1ccc(C(=O)Nc2ccc(C3=NCCN3)cc2)c(Cl)c1
survivor count ([1]; dose: 5.0 mg/kg/injection, schedule: Q01DX Z (sc), vehicle: saline): 4 of 10 and 6 of 10 | survivor count ([1]; dose: 39.0 mg/kg/injection, schedule: Q01DX Z (ip), vehicle: water): 6 of 10 | survivor count ([1]; dose: 65.0 mg/kg/injection, schedule: Q01DX Z (ip), vehicle: water): 6 of 10 | survivor count ([1]; dose: 108.0 mg/kg/injection, schedule: Q01DX Z (ip), vehicle: water): 3 of 10 | survivor count ([1]; dose: 216.0 mg/kg/injection, schedule: Q01DX001 (ip), vehicle: water): 3 of 8 | survivor count ([1]; dose: 320.0 mg/kg/injection, schedule: Q01DX001 (sc), vehicle: methylcellulose (MC)): 3 of 10 | survivor count ([1]; dose: 640.0 mg/kg/injection, schedule: Q01DX001 (sc), vehicle: methylcellulose (MC)): 2 of 10 | survivor count ([1]; dose: 640.0 mg/kg/injection, schedule: Q01DX001 (sc), vehicle: water): 2 of 10 | survivor count ([1]; dose: 1000.0 mg/kg/injection, schedule: Q01DX001 (sc), vehicle: water): 3 of 8 | T/C ([2]; dose: 8.4 mg/kg/injection, schedule: Q01DX Z (sc), vehicle: water): 130 % of control | T/C ([2]; dose: 17.0 mg/kg/injection, schedule: Q01DX Z (ip), vehicle: water): 145 % of control | T/C ([2]; dose: 80.0 mg/kg/injection, schedule: Q01DX001 (sc), vehicle: water): 133 % of control | T/C ([2]; dose: 108.0 mg/kg/injection, schedule: Q01DX Z (sc), vehicle: other): 140 % of control | T/C ([2]; dose: 108.0 mg/kg/injection, schedule: Q01DX Z (sc), vehicle: saline): 140 and 142 % of control [8 of 10 alive] | T/C ([2]; dose: 108.0 mg/kg/injection, schedule: Q01DX Z (sc), vehicle: water): 130 and 145 % of control | T/C ([2]; dose: 180.0 mg/kg/injection, schedule: Q01DX Z (sc), vehicle: water): 125 % of control | T/C ([2]; dose: 216.0 mg/kg/injection, schedule: Q01DX001 (sc), vehicle: water): 125 % of control
